{"sequences": {"note": "Sequences of proteins named here, by UniProt entry; tags and fusion partners are left off.", "UniProt P97313": "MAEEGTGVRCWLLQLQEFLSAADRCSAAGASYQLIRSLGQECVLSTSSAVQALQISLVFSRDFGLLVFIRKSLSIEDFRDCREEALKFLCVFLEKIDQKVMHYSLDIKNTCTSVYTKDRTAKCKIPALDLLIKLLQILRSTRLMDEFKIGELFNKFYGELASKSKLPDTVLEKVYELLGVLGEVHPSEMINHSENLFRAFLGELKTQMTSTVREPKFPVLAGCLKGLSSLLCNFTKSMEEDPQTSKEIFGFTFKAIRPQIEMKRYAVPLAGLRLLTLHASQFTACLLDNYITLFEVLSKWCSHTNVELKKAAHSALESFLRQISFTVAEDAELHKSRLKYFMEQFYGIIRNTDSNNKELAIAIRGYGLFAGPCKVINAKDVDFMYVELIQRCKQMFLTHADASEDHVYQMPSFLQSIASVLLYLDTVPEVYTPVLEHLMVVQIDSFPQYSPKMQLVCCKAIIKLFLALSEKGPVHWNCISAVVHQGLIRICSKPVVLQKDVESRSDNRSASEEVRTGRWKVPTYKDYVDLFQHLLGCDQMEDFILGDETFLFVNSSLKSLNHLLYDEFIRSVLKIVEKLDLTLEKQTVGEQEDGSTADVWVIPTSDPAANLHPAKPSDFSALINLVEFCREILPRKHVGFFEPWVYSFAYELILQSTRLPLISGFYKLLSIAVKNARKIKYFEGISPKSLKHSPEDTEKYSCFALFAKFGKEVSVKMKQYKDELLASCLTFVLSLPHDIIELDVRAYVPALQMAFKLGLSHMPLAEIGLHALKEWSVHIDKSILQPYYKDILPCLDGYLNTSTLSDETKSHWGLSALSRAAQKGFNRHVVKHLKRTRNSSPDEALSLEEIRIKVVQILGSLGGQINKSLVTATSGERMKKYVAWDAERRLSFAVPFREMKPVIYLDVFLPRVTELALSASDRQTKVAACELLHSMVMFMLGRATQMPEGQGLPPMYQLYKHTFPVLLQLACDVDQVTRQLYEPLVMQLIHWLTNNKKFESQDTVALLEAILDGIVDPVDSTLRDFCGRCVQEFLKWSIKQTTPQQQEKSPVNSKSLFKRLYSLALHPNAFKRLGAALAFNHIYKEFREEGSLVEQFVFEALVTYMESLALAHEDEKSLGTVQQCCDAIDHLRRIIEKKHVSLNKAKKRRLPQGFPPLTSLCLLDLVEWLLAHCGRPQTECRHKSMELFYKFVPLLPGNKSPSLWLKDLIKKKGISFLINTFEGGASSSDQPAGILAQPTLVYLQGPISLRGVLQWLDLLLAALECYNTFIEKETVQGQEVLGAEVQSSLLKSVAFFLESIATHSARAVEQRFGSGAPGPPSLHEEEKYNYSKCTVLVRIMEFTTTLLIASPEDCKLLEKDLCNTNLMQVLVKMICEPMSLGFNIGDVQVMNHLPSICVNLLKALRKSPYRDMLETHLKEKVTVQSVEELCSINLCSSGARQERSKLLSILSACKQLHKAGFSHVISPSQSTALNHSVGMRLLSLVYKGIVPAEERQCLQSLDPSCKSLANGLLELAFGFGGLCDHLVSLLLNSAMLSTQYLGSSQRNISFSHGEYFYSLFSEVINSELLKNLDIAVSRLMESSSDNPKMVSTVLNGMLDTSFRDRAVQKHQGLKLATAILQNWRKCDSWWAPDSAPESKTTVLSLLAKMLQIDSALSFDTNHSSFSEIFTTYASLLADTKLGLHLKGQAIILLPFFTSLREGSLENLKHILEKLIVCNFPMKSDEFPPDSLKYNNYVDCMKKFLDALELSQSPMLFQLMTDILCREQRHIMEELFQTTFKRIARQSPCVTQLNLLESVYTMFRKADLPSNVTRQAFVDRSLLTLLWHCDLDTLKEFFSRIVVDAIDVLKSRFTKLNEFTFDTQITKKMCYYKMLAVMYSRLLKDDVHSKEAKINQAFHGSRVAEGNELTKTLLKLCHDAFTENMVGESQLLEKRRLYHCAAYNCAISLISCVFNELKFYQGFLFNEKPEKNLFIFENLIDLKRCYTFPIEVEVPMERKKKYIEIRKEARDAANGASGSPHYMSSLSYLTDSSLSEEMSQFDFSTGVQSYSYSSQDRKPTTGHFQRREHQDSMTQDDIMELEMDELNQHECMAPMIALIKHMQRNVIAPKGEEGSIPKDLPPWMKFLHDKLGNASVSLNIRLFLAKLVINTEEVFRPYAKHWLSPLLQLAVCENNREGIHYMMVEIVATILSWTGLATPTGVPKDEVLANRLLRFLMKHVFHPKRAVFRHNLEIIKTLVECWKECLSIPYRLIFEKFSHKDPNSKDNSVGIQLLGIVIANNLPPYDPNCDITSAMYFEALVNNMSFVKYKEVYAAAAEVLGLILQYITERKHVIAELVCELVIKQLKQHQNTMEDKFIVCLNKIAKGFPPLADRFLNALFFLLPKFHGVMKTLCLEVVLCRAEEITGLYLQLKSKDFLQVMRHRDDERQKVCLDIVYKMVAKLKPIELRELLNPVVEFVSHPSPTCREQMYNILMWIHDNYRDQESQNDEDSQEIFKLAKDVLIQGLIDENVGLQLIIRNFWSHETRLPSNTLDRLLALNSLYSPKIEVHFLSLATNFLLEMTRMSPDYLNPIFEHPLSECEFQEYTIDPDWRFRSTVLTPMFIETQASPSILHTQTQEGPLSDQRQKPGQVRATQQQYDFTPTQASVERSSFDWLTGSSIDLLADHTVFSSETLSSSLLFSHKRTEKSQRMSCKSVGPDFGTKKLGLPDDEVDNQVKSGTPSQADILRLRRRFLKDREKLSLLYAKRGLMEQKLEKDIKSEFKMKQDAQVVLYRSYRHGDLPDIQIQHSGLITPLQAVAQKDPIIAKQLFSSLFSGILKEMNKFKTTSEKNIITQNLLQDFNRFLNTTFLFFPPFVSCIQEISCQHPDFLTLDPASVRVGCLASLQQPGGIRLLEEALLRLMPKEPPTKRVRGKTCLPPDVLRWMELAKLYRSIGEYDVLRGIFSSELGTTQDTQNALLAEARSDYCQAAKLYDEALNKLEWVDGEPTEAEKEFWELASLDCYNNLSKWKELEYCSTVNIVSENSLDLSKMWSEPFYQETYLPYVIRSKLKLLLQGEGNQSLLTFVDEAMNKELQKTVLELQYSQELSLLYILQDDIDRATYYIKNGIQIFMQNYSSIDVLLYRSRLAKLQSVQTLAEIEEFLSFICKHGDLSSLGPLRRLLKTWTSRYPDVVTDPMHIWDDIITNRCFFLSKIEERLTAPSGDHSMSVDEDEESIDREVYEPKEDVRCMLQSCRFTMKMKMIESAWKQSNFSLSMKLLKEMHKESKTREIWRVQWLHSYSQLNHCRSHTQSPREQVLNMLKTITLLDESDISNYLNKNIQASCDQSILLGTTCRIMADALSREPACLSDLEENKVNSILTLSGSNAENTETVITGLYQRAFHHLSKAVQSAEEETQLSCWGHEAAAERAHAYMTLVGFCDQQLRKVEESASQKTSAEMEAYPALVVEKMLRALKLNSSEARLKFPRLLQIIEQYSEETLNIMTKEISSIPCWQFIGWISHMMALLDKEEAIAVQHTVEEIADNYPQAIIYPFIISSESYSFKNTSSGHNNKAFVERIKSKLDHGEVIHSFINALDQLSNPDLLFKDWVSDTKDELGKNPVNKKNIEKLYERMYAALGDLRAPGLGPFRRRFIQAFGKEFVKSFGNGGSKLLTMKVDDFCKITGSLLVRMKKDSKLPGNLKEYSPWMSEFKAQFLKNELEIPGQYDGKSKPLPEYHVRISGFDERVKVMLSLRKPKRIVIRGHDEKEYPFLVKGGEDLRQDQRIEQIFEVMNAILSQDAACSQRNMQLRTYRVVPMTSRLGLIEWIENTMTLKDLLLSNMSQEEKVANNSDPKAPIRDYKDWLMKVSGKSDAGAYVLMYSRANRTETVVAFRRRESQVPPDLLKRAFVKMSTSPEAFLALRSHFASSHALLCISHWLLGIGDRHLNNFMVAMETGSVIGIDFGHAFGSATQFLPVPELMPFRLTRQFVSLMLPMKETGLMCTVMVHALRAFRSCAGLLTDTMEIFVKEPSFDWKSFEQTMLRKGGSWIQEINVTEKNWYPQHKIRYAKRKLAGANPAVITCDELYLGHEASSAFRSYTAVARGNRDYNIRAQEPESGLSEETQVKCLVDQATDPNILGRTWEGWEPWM", "UniProt P31750": "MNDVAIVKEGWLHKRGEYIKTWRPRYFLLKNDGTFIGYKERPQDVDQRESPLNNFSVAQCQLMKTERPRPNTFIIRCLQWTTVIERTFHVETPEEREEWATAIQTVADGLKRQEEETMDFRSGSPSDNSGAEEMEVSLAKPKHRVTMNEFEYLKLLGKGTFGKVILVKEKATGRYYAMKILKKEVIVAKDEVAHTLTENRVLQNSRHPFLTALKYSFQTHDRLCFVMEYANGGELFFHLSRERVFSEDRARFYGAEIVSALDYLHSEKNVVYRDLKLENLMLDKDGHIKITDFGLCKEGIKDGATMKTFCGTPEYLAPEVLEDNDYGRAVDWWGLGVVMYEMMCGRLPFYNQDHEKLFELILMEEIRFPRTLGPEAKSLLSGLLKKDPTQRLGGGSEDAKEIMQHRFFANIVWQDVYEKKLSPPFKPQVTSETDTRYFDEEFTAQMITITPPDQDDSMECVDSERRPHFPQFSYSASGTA", "UniProt Q60823": "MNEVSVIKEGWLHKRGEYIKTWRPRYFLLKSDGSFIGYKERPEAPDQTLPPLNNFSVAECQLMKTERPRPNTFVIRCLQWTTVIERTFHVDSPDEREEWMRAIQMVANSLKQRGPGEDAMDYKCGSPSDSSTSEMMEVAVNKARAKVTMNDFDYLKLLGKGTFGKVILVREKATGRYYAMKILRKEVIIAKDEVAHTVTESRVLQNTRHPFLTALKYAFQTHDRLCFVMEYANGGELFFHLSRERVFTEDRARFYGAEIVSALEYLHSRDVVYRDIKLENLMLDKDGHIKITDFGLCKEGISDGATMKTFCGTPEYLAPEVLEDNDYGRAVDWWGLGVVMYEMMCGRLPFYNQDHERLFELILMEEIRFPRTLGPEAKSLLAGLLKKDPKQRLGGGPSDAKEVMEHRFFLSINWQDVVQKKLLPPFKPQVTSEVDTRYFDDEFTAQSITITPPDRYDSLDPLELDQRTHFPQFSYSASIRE", "UniProt P10085": "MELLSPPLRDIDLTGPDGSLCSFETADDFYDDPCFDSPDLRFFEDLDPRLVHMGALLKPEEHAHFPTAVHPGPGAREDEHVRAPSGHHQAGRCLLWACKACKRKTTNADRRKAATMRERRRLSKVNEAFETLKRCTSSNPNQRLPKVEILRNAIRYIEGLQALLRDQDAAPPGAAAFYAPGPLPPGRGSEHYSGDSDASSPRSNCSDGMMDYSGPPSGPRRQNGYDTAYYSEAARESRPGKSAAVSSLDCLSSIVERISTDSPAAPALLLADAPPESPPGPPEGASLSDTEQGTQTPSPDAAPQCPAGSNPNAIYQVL"}, "source": "paper doi:10.1101/2022.06.23.497315", "key": {"[1]": {"target": "DNA-dependent protein kinase catalytic subunit (mouse (endogenous in C2C7)) (UniProt P97313)", "experiment": "co-IP"}, "[2]": {"target": "Akt1 (mouse (endogenous in C2C7)) (UniProt P31750)", "experiment": "co-IP"}}, "note": "No constants are given. Whether binding was seen depends on the method and setting. In cells and extracts the contact can be indirect. Some entries that bind do so weakly or less than the wild type.", "data": [{"substance": "Akt2 (from UniProt Q60823 1-481) (enzyme)", "values": [{"measurement": "binding", "setting": "[1]", "result": "binds"}]}, {"substance": "MyoD (from UniProt P10085 1-318)", "values": [{"measurement": "binding", "setting": "[2]", "result": "binds"}, {"measurement": "binding", "setting": "[1]", "result": "binds"}]}]}
